No constants are given. Whether binding was seen depends on the method and setting. For some assays here: In cells and extracts the contact can be indirect. Some binding calls cover weakened binding; strength is not graded here.
Experiments:
[1] = biological target: human full length FAK (Focal Adhesion Kinase) (human) (UniProt Q05397); assay: pull-down assay with human full length FAK
[2] = biological target: Focal Adhesion Kinase (FAK) (UniProt Q05397); assay: binding studies, not further described

Sequences of proteins named here, by UniProt entry; tags and fusion partners are left off. A change or cut given only in a name is not applied to a line headed by its entry. Residues count along the entry.
UniProt Q05397: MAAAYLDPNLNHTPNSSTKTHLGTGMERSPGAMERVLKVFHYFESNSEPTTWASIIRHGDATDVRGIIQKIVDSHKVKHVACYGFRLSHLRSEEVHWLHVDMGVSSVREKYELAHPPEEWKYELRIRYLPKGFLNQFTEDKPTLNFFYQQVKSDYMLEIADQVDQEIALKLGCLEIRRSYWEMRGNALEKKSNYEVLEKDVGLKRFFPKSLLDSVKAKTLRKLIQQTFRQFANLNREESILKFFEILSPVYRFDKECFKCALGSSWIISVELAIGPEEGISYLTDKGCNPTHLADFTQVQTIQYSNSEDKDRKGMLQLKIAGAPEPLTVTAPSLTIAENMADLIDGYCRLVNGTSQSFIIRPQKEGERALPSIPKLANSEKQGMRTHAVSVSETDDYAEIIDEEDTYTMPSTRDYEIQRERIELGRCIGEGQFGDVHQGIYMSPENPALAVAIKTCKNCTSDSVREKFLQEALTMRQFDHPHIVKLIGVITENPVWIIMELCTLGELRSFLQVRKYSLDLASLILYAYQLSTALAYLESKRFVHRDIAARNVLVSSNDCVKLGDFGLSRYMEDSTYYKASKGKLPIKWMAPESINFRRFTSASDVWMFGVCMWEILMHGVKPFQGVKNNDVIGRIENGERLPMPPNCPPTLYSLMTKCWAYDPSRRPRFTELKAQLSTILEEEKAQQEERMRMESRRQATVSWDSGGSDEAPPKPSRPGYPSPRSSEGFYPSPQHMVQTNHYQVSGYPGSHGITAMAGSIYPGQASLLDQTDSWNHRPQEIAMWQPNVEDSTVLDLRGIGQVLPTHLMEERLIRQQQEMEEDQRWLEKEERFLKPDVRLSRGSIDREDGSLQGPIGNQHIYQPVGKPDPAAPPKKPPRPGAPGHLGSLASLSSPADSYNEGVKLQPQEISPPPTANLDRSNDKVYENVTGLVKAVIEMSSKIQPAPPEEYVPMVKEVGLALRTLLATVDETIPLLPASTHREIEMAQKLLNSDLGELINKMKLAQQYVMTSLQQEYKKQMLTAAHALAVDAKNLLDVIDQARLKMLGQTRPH
human full length FAK (Focal Adhesion Kinase): residues 2-1052 of Q05397
UniProt P35916, residues 25-1363: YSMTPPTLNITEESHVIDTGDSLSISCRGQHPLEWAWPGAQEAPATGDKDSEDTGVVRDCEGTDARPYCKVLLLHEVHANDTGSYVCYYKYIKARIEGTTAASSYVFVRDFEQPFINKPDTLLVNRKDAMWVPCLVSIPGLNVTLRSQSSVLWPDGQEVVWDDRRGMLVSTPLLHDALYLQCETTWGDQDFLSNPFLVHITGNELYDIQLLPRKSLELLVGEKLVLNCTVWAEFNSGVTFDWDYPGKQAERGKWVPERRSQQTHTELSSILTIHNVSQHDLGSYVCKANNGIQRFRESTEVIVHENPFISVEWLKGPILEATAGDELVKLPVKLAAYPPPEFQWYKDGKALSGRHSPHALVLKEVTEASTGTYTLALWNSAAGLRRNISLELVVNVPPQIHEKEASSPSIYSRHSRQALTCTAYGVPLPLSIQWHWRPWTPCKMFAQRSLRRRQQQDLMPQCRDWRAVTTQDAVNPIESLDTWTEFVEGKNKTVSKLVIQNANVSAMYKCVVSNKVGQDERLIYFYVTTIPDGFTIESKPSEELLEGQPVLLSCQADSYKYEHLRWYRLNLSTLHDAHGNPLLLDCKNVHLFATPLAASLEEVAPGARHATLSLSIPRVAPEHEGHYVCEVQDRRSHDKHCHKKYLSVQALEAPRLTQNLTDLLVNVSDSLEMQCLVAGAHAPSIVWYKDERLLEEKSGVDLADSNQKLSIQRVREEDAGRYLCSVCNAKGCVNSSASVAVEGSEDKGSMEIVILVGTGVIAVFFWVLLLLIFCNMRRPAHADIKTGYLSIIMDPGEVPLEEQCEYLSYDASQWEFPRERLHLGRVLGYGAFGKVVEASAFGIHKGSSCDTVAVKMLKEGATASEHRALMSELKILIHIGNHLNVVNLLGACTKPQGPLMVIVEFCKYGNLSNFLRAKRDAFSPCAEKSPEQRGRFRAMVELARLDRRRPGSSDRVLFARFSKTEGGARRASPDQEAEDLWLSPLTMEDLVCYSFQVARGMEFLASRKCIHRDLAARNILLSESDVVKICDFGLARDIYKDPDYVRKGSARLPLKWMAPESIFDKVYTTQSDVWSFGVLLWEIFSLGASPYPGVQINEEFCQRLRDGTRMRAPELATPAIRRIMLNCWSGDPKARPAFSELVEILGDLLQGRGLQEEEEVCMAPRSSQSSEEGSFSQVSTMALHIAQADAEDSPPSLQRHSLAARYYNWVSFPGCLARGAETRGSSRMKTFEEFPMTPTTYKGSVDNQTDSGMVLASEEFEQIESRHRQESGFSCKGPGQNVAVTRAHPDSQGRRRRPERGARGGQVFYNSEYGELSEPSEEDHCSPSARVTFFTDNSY

binding [1]	binding [2]	Substance
binds	–	wild type p53 protein (from UniProt P04637 1-393)
–	binds	vascular endothelial growth factor receptor 3 (VEGFR-3) (from UniProt P35916 25-1363)

Source: US20090239850A1
